Results published in publication PMC12520551.

How the values were obtained:
[1] = system: MBP-GmSop20CACT (Glycine max); assay: EMSA; conditions: poly(dI-dC), 5x buffer: 100 mM HEPES pH 7.4, 250 mM KCl, 10 mM MgCl2, 2.5 mM EDTA, 100 ng/uL BSA, 1% NP-40, 50% glycerol, poly(dI-dC) 0.1 ug/uL, 250-500 ng protein, recombinant protein
[2] = system: MBP-GmSop20C (Glycine max); assay: EMSA; conditions: poly(dI-dC), 5x buffer: 100 mM HEPES pH 7.4, 250 mM KCl, 10 mM MgCl2, 2.5 mM EDTA, 100 ng/uL BSA, 1% NP-40, 50% glycerol, poly(dI-dC) 0.1 ug/uL, 250-500 ng protein, recombinant protein

“GCTCACACTATGAGACAAACGAGTA (double strand) [GmSWEET10a/b promoter probe (GmSop20-Biotin)]”: binds [1]; binds [2].

Construct, isoform or probe ends are uncertain for at least one entry.
